These are yes or no findings as the source states them, for the method shown. Some binding calls cover weakened binding; strength is not graded here.
How the values were obtained:
Test in all cases: HDX-MS
[1] = target: R649W PI3Kα (p110α/p85α-R649W heterodimer) (UniProt P42336)
[2] = target: WT PI3Kα (p110α/p85α heterodimer) (UniProt P42336)
[3] = target: p110α/p85α-R590* heterodimer (UniProt P42336)

Measured: binding

PDGFR bis-phosphorylated pY peptide (residues 735-767, pY740 and pY751) (from UniProt P09619 735-767)
binds: all assays above
